These are yes or no findings as the source states them, for the method shown. Binding seen in cells or lysates may run through a third protein. Where a sequence is shown, tags or fusion partners need not be part of it.
Target: T1, NRROS^nFlag overexpressed in HEK293T cells (mouse) (UniProt Q8BMT4)
T1 sequence: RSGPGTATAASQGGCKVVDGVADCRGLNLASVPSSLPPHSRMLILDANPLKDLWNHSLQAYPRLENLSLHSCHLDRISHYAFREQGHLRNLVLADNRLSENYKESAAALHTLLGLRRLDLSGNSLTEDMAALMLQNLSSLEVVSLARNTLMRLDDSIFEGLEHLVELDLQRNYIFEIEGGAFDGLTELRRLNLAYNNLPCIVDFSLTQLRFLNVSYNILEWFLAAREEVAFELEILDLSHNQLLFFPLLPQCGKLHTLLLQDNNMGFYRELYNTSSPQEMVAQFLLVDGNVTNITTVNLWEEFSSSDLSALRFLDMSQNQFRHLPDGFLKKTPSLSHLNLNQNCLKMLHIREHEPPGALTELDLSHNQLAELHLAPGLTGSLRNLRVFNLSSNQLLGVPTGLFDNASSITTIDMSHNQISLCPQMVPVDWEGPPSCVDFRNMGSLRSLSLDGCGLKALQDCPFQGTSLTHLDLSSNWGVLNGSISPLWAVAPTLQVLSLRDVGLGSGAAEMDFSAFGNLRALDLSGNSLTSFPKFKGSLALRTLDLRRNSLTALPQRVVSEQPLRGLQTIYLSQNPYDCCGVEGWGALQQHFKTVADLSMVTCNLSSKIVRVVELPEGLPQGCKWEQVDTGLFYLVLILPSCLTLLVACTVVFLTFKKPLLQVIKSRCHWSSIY
Assay: co-IP

HSP70 (HEK293T) (human (endogenous in HEK293T))
binding: no binding

PDI (HEK293T) (human (endogenous in HEK293T))
binding: no binding

— paper doi:10.1101/326512
